Primary screen of a compound library

Amino acid sequences for entries named in this document (tags omitted).
UniProt E9BF75, entry or part of it: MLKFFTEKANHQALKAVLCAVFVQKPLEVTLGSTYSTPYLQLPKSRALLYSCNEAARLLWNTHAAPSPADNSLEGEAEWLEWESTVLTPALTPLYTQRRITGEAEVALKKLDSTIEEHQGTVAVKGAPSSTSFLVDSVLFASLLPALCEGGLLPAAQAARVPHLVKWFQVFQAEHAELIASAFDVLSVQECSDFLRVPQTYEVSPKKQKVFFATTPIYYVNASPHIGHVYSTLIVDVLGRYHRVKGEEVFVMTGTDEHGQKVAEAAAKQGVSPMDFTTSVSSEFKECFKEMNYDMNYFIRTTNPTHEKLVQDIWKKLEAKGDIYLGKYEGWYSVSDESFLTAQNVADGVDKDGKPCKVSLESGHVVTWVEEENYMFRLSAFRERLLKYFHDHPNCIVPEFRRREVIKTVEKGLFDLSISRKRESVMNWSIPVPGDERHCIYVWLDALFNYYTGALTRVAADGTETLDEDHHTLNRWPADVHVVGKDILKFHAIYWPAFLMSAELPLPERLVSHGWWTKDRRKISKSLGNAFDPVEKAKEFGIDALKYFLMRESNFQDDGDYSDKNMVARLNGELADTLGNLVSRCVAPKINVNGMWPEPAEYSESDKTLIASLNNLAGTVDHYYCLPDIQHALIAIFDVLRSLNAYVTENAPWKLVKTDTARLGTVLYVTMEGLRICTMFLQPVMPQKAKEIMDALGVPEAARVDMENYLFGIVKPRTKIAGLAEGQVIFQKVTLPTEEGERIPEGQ

From ChEMBL document CHEMBL3988442, “University of Dundee, Small-Polar-MMV Screening Library” (2021).

LdMetRS: 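Methionyl-tRNA synthetase (putative), Leishmania donovani (UniProt E9BF75). Primary screen of methionyl-tRNA synthetase; the read-out is not stated. The test concentration is not given. The values are filed as inhibition. Size under these conditions: about 68,000 compounds, about 24 of them at 50% or above in at least one test.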
Mtb heat-shock: 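Assay on Mycobacterium tuberculosis, filed only as a heat shock assay from Cornell; the read-out is not stated. The concentration is filed as 10 mM, unlikely as a test dose, so the dose is not known. The record gives no direction; compounds that gave an IC50 in retests scored well above the rest, so higher reads as stronger inhibition. About 69,000 compounds were tested under these conditions; 1.4% (about 930) showed 50% or more at least once.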

Results are percentages, as filed.
The controls that fix the scale are not given in the record; negative values are as filed.
Compounds were drawn at random from those tested, without regard to their results.
A dash means the value is not listed here; it may have been measured.

| compound | LdMetRS | Mtb heat-shock |
|---|---|---|
| `CCC(=O)c1cccc(S(=O)(=O)NC(C)C#N)c1` (centres undefined) | 14.89% | -2.265% |
| `Cn1cc(C#N)c(=O)n(CC(O)c2ccccc2F)c1=O` (centres undefined) | 15.79% | -3.583% |
| `Cc1ccnc(C2(C)CCCN2S(=O)(=O)c2c(C)noc2C)n1` (centres undefined) | 10.94% | -3.173% |
| `O=C(NCCNc1ncccn1)c1ccc(-c2ccco2)[nH]c1=O` | 13.73% | 8.207% |
| `Cc1cn(CC(=O)NC2CCN(C(=O)C3CC3)CC2)c2ccccc12` | 9.294% | -11.02% |
| `[H][C@@]12CCN(S(=O)(=O)c3cccs3)[C@]1([H])CCC(=O)N2C` | - | -1.329% |
| `O=C([C@@H]1CCO[C@@H]2CCN(CC3CC3)C[C@H]21)N1CCCC1` | 2.241% | - |
| `COc1ccc(-c2nc(C)cc(SCC(N)=O)n2)cc1` | 4.29% | -4.326% |
| `CC(C)Nc1nc(N2CCCC2)nc2c1CN(C(C)C)CC2` | 18.83% | 101.9% |
| `COc1c(C2CCCN2C(=O)c2ccc(O)nc2)c(C)nn1C` (centres undefined) | 9.392% | 0.3272% |
| `O=C(NCCN1CCOCC1)c1ccn(-c2ccc3ccccn23)n1` | 13.73% | - |
| `CN1C(=O)C2(CCCN(C(=O)c3cccnc3O)C2)c2ccccc21` (centres undefined) | 9.561% | 3.062% |
| `CCc1nc(C2CCCN(C(=O)NC3CC3)C2)no1` (centres undefined) | 17.68% | 2.74% |
| `CCOC1CC2(CCN(C(=O)COC)CC2)c2cc(F)ccc21` (centres undefined) | 6.522% | 2.586% |
| `Cc1cc(N2CCC3(CCCN(C4CCOCC4)C3=O)C2)ccn1` (centres undefined) | 12.88% | -1.366% |
| `[H][C@@]12CCN(CC3CC3)C[C@]1(C(=O)NCCc1ccccn1)CCO2` | - | 15.41% |
| `O=C(NC1CC1)[C@@H]1CN(Cc2ccc3c(c2)OCO3)C[C@H]2OCC[C@H]21` | 9.408% | - |
| `O=C(O)C(F)(F)F.O=C(O)C(F)(F)F.[H][C@]12C[C@@H](CN(C)C)N(CC3CC3)[C@@]1([H])CCN(C(=O)c1cnoc1C)C2` | - | 5.323% |
| `Fc1cccc(C2(CNC3CCCNC3)CCOCC2)c1` (centres undefined) | 12.11% | 3.314% |
| `CN1CCCn2c(nc(CNC(=O)c3nccn3C)cc2=O)C1.O=C(O)C(F)(F)F.O=C(O)C(F)(F)F` | - | -6.982% |
| `NCc1n[nH]c(-c2cccc(F)c2)n1` | 2.158% | -11.93% |
| `CC(C)NC(=O)N1CCc2ncc(CN3CCOCC3)n2CC1.O=C(O)C(F)(F)F` | - | -16.24% |
| `Cc1ccc(C)c(C(=O)N2CCN(C(=O)Cc3ccccn3)CC2)c1` | 17.48% | -2.236% |
| `O=C(c1ccco1)N1C(CN2CCOCC2)[C@]2(O)CC[C@H]1CC2` (some centres undefined) | 15.07% | - |
| `CCc1nc(CN2CCCN(c3nc4ccccc4o3)CC2)no1` | 4.724% | -14.53% |
| `Cc1nn(CC(=O)n2cccn2)c(C)c1I` | 4.595% | -19.23% |
| `Cc1nc(Cc2ccc(F)cc2)cc(C2COCCN2)n1` (centres undefined) | 35.31% | - |
| `CC(=O)c1cc2ncc(C(=O)NC3CC3)cc2[nH]1` | 8.611% | 31.75% |
| `CNc1cccc(C2CCN(C(=O)c3cccnc3)CC2)n1` | 17.51% | 3.94% |
| `O=C(C(CNCc1ccco1)c1ccccc1)N1CCOCC1` (centres undefined) | 4.087% | 8.22% |
| `CC(=O)NCc1ccc(S(=O)(=O)NC(=O)c2ccc3c(c2)COC3)s1` | 13.49% | 9.069% |
| `Cn1cccc1C1CCCCCN1C(=O)c1ccc(NC2CC2)nc1` (centres undefined) | 37.14% | 7.145% |
| `OCC(CO)N1CCC(c2nnc(Cn3ccnc3)n2C2CC2)CC1` | -1.299% | -3.371% |
| `CCCC(NC(=O)c1ccc(OC)cc1C)c1nnn[nH]1` (centres undefined) | 3.183% | 17.66% |
| `O=C(Nc1cccc(OCc2ccc(F)cc2)c1)C1COCCO1` (centres undefined) | 9.756% | 20.71% |
| `Cc1ccnn1CC(=O)N(C)Cc1ccc(-n2cccn2)cc1` | 17.83% | 13.49% |
| `CCOCc1nc(-c2ccc(F)cc2Cl)n(C)n1` | 14.36% | 16.18% |
| `NC(=O)c1cn[nH]c1C1CCCN1C(=O)c1ccccc1` (centres undefined) | 14.17% | 23.54% |
| `Cc1cnn(CC2CN(Cc3nc4ccccc4s3)CCO2)c1` (centres undefined) | 25.07% | -2.009% |
| `COCCCNC(=O)CN(C)C(=O)c1ccc(-n2cccc2)cc1O` | 12.38% | 1.808% |
| `COc1cc(S(=O)(=O)N2CCc3ccc(Cl)cc32)cc(C(=O)O)c1OC` | 7.225% | -13.33% |
| `Cc1nnc2n1CCN(Cc1nc3ccccc3o1)C2` | 8.791% | 3.627% |
| `O=C(O)C(F)(F)F.[H][C@]12CCN(CC3CC3)C(=O)[C@]1([H])CN(C1CCOCC1)C2` | - | -5.604% |
| `CCC(CNC(=O)c1ccc(F)cc1F)N1CCc2ccccc2C1` (centres undefined) | 0.5435% | -1.399% |
| `COc1ncccc1NC(=O)N(Cc1ccc(C)o1)C1CC1` | 7.692% | -11.27% |
| `O=C(O)C(F)(F)F.O=C(O)C(F)(F)F.[H][C@@]12COC[C@]1([H])[C@H](OCc1ccccn1)CN2Cc1nccs1` | - | 32.68% |
| `[H][C@@]12COC[C@]1(COCc1cccc(C)n1)CN(c1ncccn1)C2` | - | -38.7% |
| `COc1cccc(-n2c(C)cc(C(=O)NC(C)(C)C(N)=O)c2C)c1` | 16.06% | -12.1% |
| `Cc1ccc(CN2CCC3(CC2)COCCN3S(C)(=O)=O)o1.O=C(O)C(F)(F)F` | - | 38.18% |
| `CN(CC1CCOC1)c1ncc(Br)cn1` (centres undefined) | 13.47% | 8.032% |
| `CCCNC(=O)c1ccc(S(=O)(=O)NCC2(COC)CCCC2)cc1` | 11.72% | -18.39% |
| `CC[C@H]1CN(C(=O)c2cnc(N3CCN(C)CC3)nc2C)CC[C@@]1(C)O` | 2.326% | -24.83% |
| `Cn1ccnc1CN1C(=O)CO[C@H]2CN(Cc3ccc(F)c(F)c3)C[C@H]21` | 5.085% | - |
| `Cc1ccc(Cn2nc(C)c3c(C(=O)O)c(Cl)c(C)nc32)cc1` | 6.266% | -23.9% |
| `CN1CC2(CCN(C(=O)C3CCC3)CC2)COc2ccccc2S1(=O)=O` | 13.71% | -38.65% |
| `COCCC(Cc1cccc(Br)c1)C(=O)NCC(N)=O` (centres undefined) | 18.77% | -4.156% |
| `Fc1cccc(CN2CCN(Cc3cscn3)CC2)c1` | 13.4% | -0.2773% |
| `CN1CCN(C(=O)CCc2cc(Br)cs2)CC1` | 5.615% | 22.83% |
| `Cc1noc([C@H]2C[C@H]3OCC[C@H]3N(Cc3ccncc3)C2)n1` | 15.56% | - |
| `Cc1cc(C(=O)N2CC[C@@H](N(C)C)[C@@H]2Cc2ccccc2)no1` | -194.4% | - |
| `CC(=O)Nc1ccc2c(c1)CN(C(=O)c1ccco1)CC2` | -4.194% | -4.444% |
| `CC(C)Oc1ccc(CN2CCC(Cc3nnc(CO)n3C)CC2)cc1` | - | -21.53% |
| `O=C1c2ncccc2C(CCO)N1Cc1ccccc1` (centres undefined) | 6.757% | -3.422% |
| `NS(=O)(=O)NCc1cc(-c2ccco2)n(CC(F)(F)F)n1` | 16.26% | -15.09% |
| `Cc1noc(C)c1NC(=O)N1CCC(NC(=O)OC(C)(C)C)CC1` | 7.258% | -17.19% |

Repeated from the top, 8 entries:

| compound | LdMetRS | Mtb heat-shock |
|---|---|---|
| `CCC(=O)c1cccc(S(=O)(=O)NC(C)C#N)c1` (centres undefined) | 14.89% | -2.265% |
| `Cn1cc(C#N)c(=O)n(CC(O)c2ccccc2F)c1=O` (centres undefined) | 15.79% | -3.583% |
| `Cc1ccnc(C2(C)CCCN2S(=O)(=O)c2c(C)noc2C)n1` (centres undefined) | 10.94% | -3.173% |
| `O=C(NCCNc1ncccn1)c1ccc(-c2ccco2)[nH]c1=O` | 13.73% | 8.207% |
| `Cc1cn(CC(=O)NC2CCN(C(=O)C3CC3)CC2)c2ccccc12` | 9.294% | -11.02% |
| `[H][C@@]12CCN(S(=O)(=O)c3cccs3)[C@]1([H])CCC(=O)N2C` | - | -1.329% |
| `O=C([C@@H]1CCO[C@@H]2CCN(CC3CC3)C[C@H]21)N1CCCC1` | 2.241% | - |
| `COc1ccc(-c2nc(C)cc(SCC(N)=O)n2)cc1` | 4.29% | -4.326% |